Assay [1] has as its target T1, bZIP25 DNA binding domain and leucine zipper region (V230-S322) (Arabidopsis thaliana) (UniProt Q9M1G6).
T1 sequence: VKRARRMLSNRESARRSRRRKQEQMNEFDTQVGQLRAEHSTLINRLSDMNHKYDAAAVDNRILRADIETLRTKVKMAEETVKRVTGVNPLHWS
Briefly: CD thermal denaturation; equimolar mixture of two proteins (2 µM dimer each, 4 µM dimer mixture), ellipticity at 222 nm, heated from 6–85 °C; mixture curve compared with the theoretical sum line; KD of the heterodimer at 25 °C calculated from ΔGDi; both purified.

The target of assay [2] is T1, bZIP25 DNA binding domain and leucine zipper region (V230-S322) (Arabidopsis thaliana). Description: native MS; ESI-MS in unbuffered MS grade water, 2 µM homodimer, 4 µM heterodimer mixtures, samples kept at 23 ± 2 °C, ion spray interface temperature switched off, declustering potential 10 V; both purified.

These are yes or no findings as the source states them, for the method shown.

B1: bZIP53 DNA binding domain and leucine zipper region (Y18-D116) (domain or fragment, Arabidopsis thaliana, UniProt Q9LZP8 18-116, looked up)
chain: YATVTDERKRKRMISNRESARRSRMRKQKQLGDLINEVTLLKNDNAKITEQVDEASKKYIEMESKNNVLRAQASELTDRLRSLNSVLEMVEEISGQALD
notes: An internal HindIII site of the amplicon was destroyed by site-directed mutagenesis; Measured monomer mass 12957 Da; In the protoplast reporter assays the full-length protein was expressed from a plasmid; also called basic leucine zipper 53; source: E. coli BL21 (DE-3), HPLC purified
As for B1, the results for the binding entry in assay [1] and in assay [2] were “no binding (tested: 2 µM dimer each)” and “no binding (tested: 2 µM each)”, respectively.

These data come from PMC5662769, “A-ZIP53, a dominant negative reveals the molecular mechanism of heterodimerization between bZIP53, bZIP10 and bZIP25 involved in Arabidopsis seed maturation” (Scientific Reports, 2017).
